Measured values reported in patent publication US9499509B2, “Dihydrochalcone derivatives and their use as antibiotic agents” (UNIVERSITÉ DU QUÉBEC À CHICOUTIMI, priority 2012, dated 2016).

Tested on: WS-1 cell lines
Assay: Cytotoxicity assay on WS-1 (Example 1)
Details: ratio of toxicity on WS-1 to toxicity on S. aureus WT ATCC 25923
Protocol: Cytotoxicity assay. The cytotoxicity assay was performed in 96-well plates (BD Falcon). The WS-1 cell lines were provided by ATCC. The WS-1 was cultured in DMEM+10% fetal calf serum. The cells were plated in a volume of 100 μL at a density of 5000 cells per well and incubated at 37° C.+5% CO2 for 24 h to promote cell adhesion.
The plates were incubated at 37° C.+5% CO2 for 48 h. The cells were then washed with 100 μL of HBSS and 150 μL of a 2% resazurin were added to the wells.
The therapeutic index is the ratio between the toxicity on normal cells, in this case fibroblast, and the toxicity on bacteria.

Compound COc1cc(O)c(C(=O)CCc2ccc(O)cc2)c(O)c1C/C=C/c1ccc(O)cc1 [Compound I] has a Therapeutic index of 18.
